# Laboratory results reported in US20240262845A1, “PYRIDINIUM SALTS, METHODS OF MAKING, AND METHODS OF USE” (UNIVERSITY OF WYOMING, priority 2023, published 2024).
# “Also recorded” adds a separate entry of the source. Where a name gives a salt, the structure may show the parent alone.
# Test system: HEK293T cells
# Assay: In-situ chemoproteomic tryptophan profiling of live HEK293T cells
# Type: cell-based, human
# Description: Cell culture and in-situ tryptophan probe treatment: Cell lines were cultured at 37° C. with 5% CO2. Human embryonic kidney 293 cells expressing a mutant version of the SV40 large T antigen (HEKT293T cells) were grown in Dulbecco's Modified Eagle Medium (DMEM, Gibco) supplemented with 10% fetal bovine serum and 1% penicillin/streptomycin. For in-situ labeling, cells were grown to 90% confluence, washed with Dulbecco's phosphate buffered saline (DPBS), treated with 100× stocks of the tryptophan probes (the pyridinium salts) in OptiMem (GibCo) to generate final concentrations (0 μM, 1 μM, 10 μM, and 100 μM) in 1% dimethylsulfoxide (DMSO). Cells were incubated for 1 hour at 37° C. with 5% CO2 followed by photo-activation at the respective wavelengths for 20 minutes at 4° C. Cells were harvested with a cell scraper, washed 3× with DPBS, and pellets were stored at −80° C. until further use. […]
# In-situ tryptophan probe sample processing for peptide-level characterization: Cell pellets were lysed via sonication (QSonica) at 50% amplitude, 2 seconds ON, 3 seconds OFF, 30 seconds in 40 mM HEPES pH 7.5 (4-(2-hydroxyethyl)-1-piperazineethanesulfonic acid), 1.5 mM magnesium chloride (MgCl2), 1% Sodium dodecyl sulfate (SDS), 0.8% NP-40 (also known as nonyl phenoxypolyethoxylethanol), and 1× protease inhibitors (Thermo). Protein concentration was determined by BCA (Pierce). […]
structure (smiles),measurement,setting,value
"COc1ccc2cc(-c3cc(C)[n+](N(C)C(=O)OCCCCCCN=[N+]=[N-])c(C)c3)ccc2c1 [pyridinium salt 2d, 1-((((6-azidohexyl)oxy)carbonyl)(methyl)amino)-4-(6-methoxynaphthalen-2-yl)-2,6-dimethylpyridin-1-ium tetrafluoroborate]",Trp residue of NPM1 labeled in situ,NPM1,Trp290
same,Trp residues of PARP1 modified and dose-dependently enriched in situ,PARP1,Trp79; also recorded: Trp318
